# Assay results taken from the supplement of paper PMC9744312.
# Counter-ions that a name gives are not always drawn. Some of the results follow. Single values of this set are uncertain.
# System: Peyronie's disease tunica albuginea primary fibroblasts
# Experiment: cell viability (DRAQ5 nuclear stain) relative to TGF-beta1-only control; higher = more viable cells
# Details: 10 µM; TGF-beta1 10 ng/mL; 72 h
row,Structure (SMILES),cell viability
1,CCN1CC(CCN2CCOCC2)C(c2ccccc2)(c2ccccc2)C1=O (stereo not drawn) [Doxapram],89.4%
2,CCN1CC(CCN2CCOCC2)C(c2ccccc2)(c2ccccc2)C1=O (stereo not drawn) [Doxapram HCl],95.7%
3,CC(=O)OCC(=O)[C@@]12N=C(C)O[C@@H]1C[C@H]1[C@@H]3CCC4=CC(=O)C=C[C@]4(C)[C@H]3[C@@H](O)C[C@@]12C [Deflazacort],81.4%
4,OCc1cc(C(O)CNCCCCCCOCCCCc2ccccc2)ccc1O (stereo not drawn) [Salmeterol],69.5%
5,OCc1cc(C(O)CNCCCCCCOCCCCc2ccccc2)ccc1O (stereo not drawn) [Salmeterol Xinafoate],68.6%
6,C[C@@H](CN1CC(=O)NC(=O)C1)N1CC(=O)NC(=O)C1 [Dexrazoxane],93.5%
7,"C[C@@H](CN1CC(=O)NC(=O)C1)N1CC(=O)NC(=O)C1 [Dexrazoxane HCl (ICRF-187, ADR-529)]",90.9%
8,CC(=O)Nc1ccc(CC(=O)O)cc1 [Actarit],87.5%
9,"CC1CCC(C(C)C)C(O)C1 (single isomer, unassigned; (-)) [(-)-Menthol]",89.2%
10,CNCCC(Oc1ccc(C(F)(F)F)cc1)c1ccccc1 (stereo not drawn) [Fluoxetine HCl],80.5%
11,Cc1nc2n(c(=O)c1CCN1CCC(c3noc4cc(F)ccc34)CC1)CCCC2 [Risperidone],95%
12,N=C(N)NCCC[C@H](N)C(=O)O [L-Arginine HCl (L-Arg)],84%
13,CCCCOc1cc(C(=O)NCCN(CC)CC)c2ccccc2n1 [Dibucaine HCl],93.3%
14,CCCCOc1cc(C(=O)NCCN(CC)CC)c2ccccc2n1 [Cinchocaine],80%
15,CCS(=O)(=O)CCn1c([N+](=O)[O-])cnc1C [Tinidazole],91.2%
16,N#C[C@@H]1C[C@@H]2C[C@@H]2N1C(=O)[C@@H](N)C12CC3CC(CC(O)(C3)C1)C2 [Saxagliptin],85.5%
17,N#C[C@@H]1C[C@@H]2C[C@@H]2N1C(=O)[C@@H](N)C12CC3CC(CC(O)(C3)C1)C2 [Saxagliptin hydrate],97.7%
18,O=C1CCc2cc(OCCCCc3nnnn3C3CCCCC3)ccc2N1 [Cilostazol],97.1%
19,CCC1=C(C)CN(C(=O)NCCc2ccc(S(=O)(=O)NC(=O)N[C@H]3CC[C@H](C)CC3)cc2)C1=O [Glimepiride],67.6%
20,CC1(C)NC(=O)N(c2ccc([N+](=O)[O-])c(C(F)(F)F)c2)C1=O [Nilutamide],86.5%
21,CCCCCCc1ccc(O)cc1O [Hexylresorcinol],83.8%
22,O=C(/C=C\n1cnc(-c2cc(C(F)(F)F)cc(C(F)(F)F)c2)n1)NNc1cnccn1 [Selinexor (KPT-330)],56%
23,COC(=O)[C@@H]1[C@H]2C[C@H]3c4[nH]c5ccccc5c4CCN3C[C@@H]2CC[C@@H]1O [Yohimbine HCl],89.9%
24,CC(C)NCC(O)COc1cccc2ccccc12 (stereo not drawn) [Propranolol HCl],76%
25,CCCCc1nc(C)c(CC(=S)N(C)C)c(=O)n1Cc1ccc(-c2ccccc2-c2nnn[nH]2)cc1 [Fimasartan],97.3%
26,Cc1nc(NC(=O)N2CCC[C@H]2C(N)=O)sc1-c1ccnc(C(C)(C)C(F)(F)F)c1 [Alpelisib (BYL719)],63.8%

# Retrieved one by one from the entries so far, two records:
row,Structure (SMILES),cell viability
23,COC(=O)[C@@H]1[C@H]2C[C@H]3c4[nH]c5ccccc5c4CCN3C[C@@H]2CC[C@@H]1O [Yohimbine HCl],89.9%
25,CCCCc1nc(C)c(CC(=S)N(C)C)c(=O)n1Cc1ccc(-c2ccccc2-c2nnn[nH]2)cc1 [Fimasartan],97.3%

# Later entries:

row,Structure (SMILES),cell viability
1,CCOC(=O)C1=C[C@]2(CC)CCCN3CCc4c(n1c1ccccc41)[C@@H]32 [Vinpocetine],94.8%
2,CN1CCC(COc2cnc(-c3cccc(Cn4nc(-c5cccc(C#N)c5)ccc4=O)c3)nc2)CC1,81.3%
3,CC(C)c1cc(C(=O)N2Cc3ccc(CN4CCN(C)CC4)cc3C2)c(O)cc1O,56.3%
4,Cc1cccc(CN2CCN(C(c3ccccc3)c3ccc(Cl)cc3)CC2)c1 (stereo not drawn) [Meclizine 2HCl],93.3%
5,COc1cnc(NS(=O)(=O)c2ccc(N)cc2)nc1 [Sulfameter],95%
6,O=C(O)CCC(=O)Nc1ccc(S(=O)(=O)Nc2nccs2)cc1 [Succinylsulfathiazole],95.6%
7,O=NN(CCCl)C(=O)NC1CCCCC1 [Lomustine],76.9%
8,COc1ccccc1O [Guaiacol],95.2%
9,CCCCC(C)(O)C/C=C/[C@H]1[C@H](O)CC(=O)[C@@H]1CCCCCCC(=O)OC (mixture of isomers) [Misoprostol],83%
10,CCCCCCCCc1ccc(CCC(N)(CO)CO)cc1 [Fingolimod (FTY720) HCl],49.4%
11,CC(=O)OCC1=C(C(=O)O)N2C(=O)[C@@H](NC(=O)CSc3ccncc3)[C@H]2SC1 [Cephapirin Sodium],52.5%
12,O=C1OC2(c3ccc(O)cc3Oc3cc(O)ccc32)c2ccccc21 [Fluorescein],92%
13,CN(C)[C@@H]1C(O)=C(C(N)=O)C(=O)[C@@]2(O)C(O)=C3C(=O)c4c(O)ccc(Cl)c4[C@@](C)(O)[C@H]3C[C@@H]12 [Chlortetracycline HCl],92%
14,COc1cc(C(=O)NC2CCCNC2)cc(OC)c1OC (stereo not drawn) [Troxipide],99.2%
15,C[C@]12CC[C@@H]3c4ccc(O)cc4CC[C@H]3[C@@H]1CCC2=O [Estrone],95.2%
16,CN1CC2c3ccccc3Oc3ccc(Cl)cc3C2C1 (stereo not drawn) [Asenapine maleate],54.7%
17,c1ccc2[nH]c(-c3cscn3)nc2c1 [Thiabendazole],93.5%
18,OC[C@@H](O)[C@@H](O[C@@H]1O[C@H](CO)[C@H](O)[C@H](O)[C@H]1O)[C@H](O)[C@@H](O)CO [Lactitol monohydrate],78.6%
19,OC[C@@H](O)[C@@H](O[C@@H]1O[C@H](CO)[C@H](O)[C@H](O)[C@H]1O)[C@H](O)[C@@H](O)CO [Lactitol],83%
20,CC(C)(C)NC(=O)N[C@H](C(=O)N1C[C@H]2[C@@H]([C@H]1C(=O)NC(CC1CCC1)C(=O)C(N)=O)C2(C)C)C(C)(C)C (stereo partly drawn) [Boceprevir],94.9%
21,CC1(C)S[C@@H]2[C@H](NC(=O)[C@H](NC(=O)N3CCN(S(C)(=O)=O)C3=O)c3ccccc3)C(=O)N2[C@H]1C(=O)O [Mezlocillin Sodium],90.7%
22,Cn1c(=O)cc(N2CCC[C@@H](N)C2)n(Cc2ccccc2C#N)c1=O [Alogliptin],110%
23,CCCCCCCN(CC)CCCC(O)c1ccc(NS(C)(=O)=O)cc1 (stereo not drawn) [Ibutilide Fumarate],84.4%
24,Cc1nnc(C(C)C)n1C1C[C@H]2CC[C@@H](C1)N2CC[C@H](NC(=O)C1CCC(F)(F)CC1)c1ccccc1 (stereo in doubt) [Maraviroc],94.4%
25,COc1cc(Nc2ncc(F)c(Nc3ccc4c(n3)N(COP(=O)(O)O)C(=O)C(C)(C)O4)n2)cc(OC)c1OC [Fostamatinib (R788)],29%
26,COc1cc(Nc2ncc(F)c(Nc3ccc4c(n3)N(COP(=O)(O)O)C(=O)C(C)(C)O4)n2)cc(OC)c1OC [R788 (Fostamatinib) Disodium],38%

row,Structure (SMILES),cell viability
1,COc1ccc(-c2cc(=O)c3c(O)cc(O[C@@H]4O[C@H](CO[C@@H]5O[C@@H](C)[C@H](O)[C@@H](O)[C@H]5O)[C@@H](O)[C@H](O)[C@H]4O)cc3o2)cc1O [Diosmin],92.4%
2,FC(F)(F)c1ccc(CNc2ccc(Cc3c[nH]c4ncc(Cl)cc34)cn2)cn1 [Pexidartinib (PLX3397)],72.1%
3,Cn1c(=O)c2[nH]cnc2n(C)c1=O [Aminophylline],93.8%
4,CS(=O)(=O)c1ccc(C2=C(c3ccccc3)C(=O)OC2)cc1 [Rofecoxib],94.4%
5,Cc1[nH]c(=O)c(C#N)cc1-c1ccncc1 [Milrinone],87.5%
6,CN(C)CCC=C1c2ccccc2CCc2ccccc21 [Amitriptyline HCl],90%
7,Cc1ccnc2c1NC(=O)c1cccnc1N2C1CC1 [Nevirapine],84.1%
8,C#C[C@]1(O)CC[C@H]2[C@@H]3CCc4cc(OC5CCCC5)ccc4[C@H]3CC[C@@]21C [Quinestrol],82.5%
9,N=C(N)N [Guanidine HCl],68.1%
10,Cc1c(C(N)=O)cc([N+](=O)[O-])cc1[N+](=O)[O-] [Dinitolmide],96.1%
11,COc1ccc(C2C(=O)c3ccccc3C2=O)cc1 [Anisindione],81.2%
12,Cc1cccc(C)c1NC(=O)C1CCCCN1C (stereo not drawn) [Mepivacaine],90.6%
13,Cc1cccc(C)c1NC(=O)C1CCCCN1C (stereo not drawn) [Mepivacaine HCl],96.9%
14,CN(C)c1ccc2nc3ccc(=[N+](C)C)cc-3sc2c1 [Methylene Blue],142%
15,Cc1ncc([N+](=O)[O-])n1CC(O)CCl (stereo not drawn) [Ornidazole],85.2%
16,N#Cc1ccc2[nH]cc(CCCCN3CCN(c4ccc5oc(C(N)=O)cc5c4)CC3)c2c1 [Vilazodone HCl],90.5%
17,CN1C(C(=O)Nc2ccccn2)=C(O)c2sccc2S1(=O)=O [Tenoxicam],92.8%
18,OC[C@@H](O)[C@H](O)[C@@H](O)CO [Xylitol],82.9%
19,COc1cc2c(cc1OC)C(=O)C(CC1CCN(Cc3ccccc3)CC1)C2 (stereo not drawn) [Donepezil],88.2%
20,COc1cc2c(cc1OC)C(=O)C(CC1CCN(Cc3ccccc3)CC1)C2 (stereo not drawn) [Donepezil HCl],85.9%
21,CNCC[C@H](Oc1cccc2ccccc12)c1cccs1 [Duloxetine],80.3%
22,CNCC[C@H](Oc1cccc2ccccc12)c1cccs1 [Duloxetine HCl],85.3%
23,CC1(COc2ccc3c(c2)ncn3-c2ccc3cccc(N4CCC(N)CC4)c3n2)COC1,55.4%
24,CO[C@@]1(NC(=O)Cc2cccs2)C(=O)N2C(C(=O)O)=C(COC(N)=O)CS[C@@H]21 [Cefoxitin sodium],89%
25,CN(C(=O)c1ccc(F)cc1C(F)(F)F)C1CCN(c2nnc(-c3ccnn3C)c3ccccc23)CC1,95%
26,COc1ccc([C@H]2CNC(=O)C2)cc1OC1CCCC1 [S- (+)-Rolipram],107%

# 4 entries from above, tab-delimited.
row	Structure (SMILES)	cell viability
1	CCN1CC(CCN2CCOCC2)C(c2ccccc2)(c2ccccc2)C1=O (stereo not drawn) [Doxapram]	89.4%
2	CCN1CC(CCN2CCOCC2)C(c2ccccc2)(c2ccccc2)C1=O (stereo not drawn) [Doxapram HCl]	95.7%
3	CC(=O)OCC(=O)[C@@]12N=C(C)O[C@@H]1C[C@H]1[C@@H]3CCC4=CC(=O)C=C[C@]4(C)[C@H]3[C@@H](O)C[C@@]12C [Deflazacort]	81.4%
4	OCc1cc(C(O)CNCCCCCCOCCCCc2ccccc2)ccc1O (stereo not drawn) [Salmeterol]	69.5%
